Results from the supplement of paper PMC11348887.
Structures can show the parent of a compound that is named as a salt. Some of the results follow. Small differences around the control level are noise. Where a SMILES comes first, the peptide text is derived from it.

What follows are compounds tested on hPSC-derived cortical neurons (WA09) (assay: nucleus roundness z-score vs screen plate; higher = rounder nuclei (more mature)). Conditions: 5 µM; treatment: days 7-14 after plating, readout day 21.

Row | SMILES | nucleus roundness z-score
1 | C[N+](C)(C)C[C@H](O)CC(=O)[O-] [L-carnitine] | -0.423
2 | Cc1nc(Nc2cnn(C3CCNCC3)c2)nc2c1N(C)C(=O)c1cc3ccccc3cc1N2C | 0.568
3 | [O-][n+]1cccc(CO)c1 [Mepiroxol] | 0.0698
4 | COc1cc(N2CCC(N3CCN(C)CC3)CC2)ccc1Nc1ncnc(Nc2ccccc2S(=O)(=O)C(C)C)n1 | -1.12
5 | Nc1ccn([C@@H]2CS[C@H](CO)O2)c(=O)n1 [Lamivudine] | -0.926
6 | C=C1CC[C@H](O)C/C1=C/C=C1\CCC[C@]2(C)[C@@H]([C@H](C)CCCC(C)C)CC[C@@H]12 [Vitamin D3] | -0.534
7 | C[C@]12C=CC(=O)N[C@@H]1CC[C@@H]1[C@@H]2CC[C@]2(C)[C@@H](C(=O)Nc3cc(C(F)(F)F)ccc3C(F)(F)F)CC[C@@H]12 [Dutasteride] | 0.125
8 | CC[C@@](C)(Nc1ccnc(-c2c[nH]c3ncccc23)n1)C(=O)NCC(F)(F)F [Decernotinib (VX-509)] | 2.5
9 | O=C(c1ccc(/C=C/c2n[nH]c3ccccc23)cc1)N1CCNCC1 | 2.23
10 | Nc1cc(F)ccc1NC(=O)/C=C/c1cnn(C/C=C/c2ccccc2)c1 | 0.18
11 | O=C(OCc1ccccc1)c1ccccc1 [Benzyl benzoate] | 0.704
12 | COC(=O)[C@H](Cc1ccccc1)NC(=O)[C@@H](N)CC(=O)O [Aspartame] (H-Asp-Phe-OMe) | -0.485
13 | CC(C)[C@H](N)C(=O)OCCOCn1cnc2c(=O)nc(N)[nH]c21 [Valaciclovir HCl] | -0.226
14 | COC(=O)[C@H](c1ccccc1Cl)N1CCc2sccc2C1 [Clopidogrel] | -0.229
15 | CC(C)(c1ccc(OCC(O)CO)cc1)c1ccc(OCC(O)CCl)cc1 (centres undefined) | -0.243
16 | C[C@H](CS)C(=O)N1CCC[C@H]1C(=O)O [Captopril] | -0.0107
17 | CCCC[C@@H](C=O)NC(=O)[C@H](CC(C)C)NC(=O)OCc1ccccc1 [Calpeptin] | -0.391
18 | CCOC(=O)[C@@H](N)Cc1ccc(-c2cc(O[C@H](c3ccc(Cl)cc3-n3ccc(C)n3)C(F)(F)F)nc(N)n2)cc1 [Telotristat Etiprate (LX 1606 Hippurate)] | -0.313
19 | c1cn2cc(-c3ccc4cn[nH]c4c3)nc(Nc3ccc(N4CCOCC4)cc3)c2n1 | 0.162
20 | C[C@H]1[C@@H](O)O[C@@H]2O[C@@]3(C)CC[C@H]4[C@H](C)CC[C@@H]1[C@@]24OO3 [Dihydroartemisinin (DHA)] | -0.684

Three of these compounds, set out differently:

| Row | SMILES | nucleus roundness z-score |
| --- | --- | --- |
| 2 | Cc1nc(Nc2cnn(C3CCNCC3)c2)nc2c1N(C)C(=O)c1cc3ccccc3cc1N2C | 0.568 |
| 12 | COC(=O)[C@H](Cc1ccccc1)NC(=O)[C@@H](N)CC(=O)O [Aspartame] (H-Asp-Phe-OMe) | -0.485 |
| 16 | C[C@H](CS)C(=O)N1CCC[C@H]1C(=O)O [Captopril] | -0.0107 |

Later entries:

Row | SMILES | nucleus roundness z-score
21 | OC[C@@H](O)[C@@H](O)CO [Erythritol] | 0.161
22 | COc1cc(N2CCN(C)CC2)ccc1Nc1nccc(-c2cn(C)c3cnccc23)n1 | -6.93
23 | O=C(Cc1ccccc1)Nc1nnc(CCSCCc2nnc(NC(=O)Cc3ccccc3)s2)s1 | 0.0258
24 | Cc1cc2c(F)c(Oc3ncnn4cc(OC[C@@H](C)O)c(C)c34)ccc2[nH]1 | 0.531
25 | CCn1c(=O)c2c(nc(/C=C/c3ccc(OC)c(OC)c3)n2C)n(CC)c1=O [Istradefylline] | 0.884
26 | C[C@H]1[C@H](C)CC[C@]2(C(=O)O)CC[C@]3(C)C(=CC[C@@H]4[C@@]5(C)C[C@@H](O)[C@H](O)[C@@](C)(CO)[C@@H]5CC[C@]43C)[C@H]12 [Asiatic Acid] | 0.532
27 | Cc1cc(=O)[nH]c(=S)[nH]1 [Methylthiouracil] | -0.211
28 | C[C@H]1CO[C@@H]2Cn3cc(C(=O)NCc4ccc(F)cc4F)c(=O)c(O)c3C(=O)N12 | 0.198
29 | O=C(O)c1ccccc1Nc1cccc(C(F)(F)F)c1 [Flufenamic acid] | 0.156
30 | O=C(Oc1ccccc1C(=O)O)c1ccccc1O [Sasapyrine] | 0.312
31 | CC(C)C[C@H](NC(=O)[C@H]1O[C@@H]1C(=O)O)C(=O)NCCCCN=C(N)N | -0.692
32 | COc1cc(-c2cc(-c3cccc(O)c3)cnc2N)cc(OC)c1OC | -0.392
33 | Cc1cc(Nc2cc(CN3CCOCC3)c3nc(C)c(Cc4ccc(Cl)cc4F)n3n2)n[nH]1 | 0.229
34 | N=C(N)NCCC[C@H](N)C(=O)O [L-Arginine HCl (L-Arg)] | 0.341
35 | COc1cc(Nc2ncc(F)c(Nc3ccc4c(n3)NC(=O)C(C)(C)O4)n2)cc(OC)c1OC | 0.262
36 | C#CCC(Cc1cnc2nc(N)nc(N)c2n1)c1ccc(C(=O)N[C@@H](CCC(=O)O)C(=O)O)cc1 (some centres undefined) [Pralatrexate] | -1.13
37 | Cc1nccn1CC1CCc2c(c3ccccc3n2C)C1=O (centres undefined) [Ondansetron HCl] | 0.774
38 | C[C@]1(c2nc3c(C(N)=O)cccc3[nH]2)CCCN1 [Veliparib (ABT-888)] | 0.109
39 | Cc1ccc(-n2nc(C(C)(C)C)cc2NC(=O)Nc2ccc(OCCN3CCOCC3)c3ccccc23)cc1 [BIRB 796 (Doramapimod)] | -1.33
